Test results taken from paper PMC11187910.
The exact form of at least one protein or probe is not confirmed. At least one result comes from cells or an extract, where the contact may be indirect. At least one verdict rests on a figure or table, not on a statement of the authors. Tags and fusion partners may be left off the protein sequences shown.

Biological target: T1, OCT6 (endogenous, nuclear extract of Ishikawa cells with WT IDH1) (UniProt Q03052)
T1 sequence (looked up, limits assumed): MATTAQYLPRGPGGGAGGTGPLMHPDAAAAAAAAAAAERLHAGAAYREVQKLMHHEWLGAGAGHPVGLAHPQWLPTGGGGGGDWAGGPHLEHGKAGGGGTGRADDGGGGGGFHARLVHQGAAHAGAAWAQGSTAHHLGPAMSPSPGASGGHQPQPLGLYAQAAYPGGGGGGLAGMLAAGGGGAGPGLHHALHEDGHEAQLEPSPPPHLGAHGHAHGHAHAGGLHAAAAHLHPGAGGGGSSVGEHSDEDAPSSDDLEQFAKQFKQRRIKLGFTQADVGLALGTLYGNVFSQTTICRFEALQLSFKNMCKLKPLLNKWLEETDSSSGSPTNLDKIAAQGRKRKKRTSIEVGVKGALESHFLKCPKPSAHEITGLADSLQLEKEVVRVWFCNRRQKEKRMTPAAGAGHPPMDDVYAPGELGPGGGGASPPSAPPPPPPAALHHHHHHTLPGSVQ
Test: EMSA supershift, anti-OCT6
Details: MPA-treated cells expressing WT IDH1, nuclear extract 10 ug; 10 mM Tris-HCl pH 7.5, 1 mM MgCl2, 0.5 mM EDTA, 50 mM NaCl, 0.5 mM DTT, 4% glycerol, 0.05 mg/mL poly(dI-dC); 7.5% native PAGE; temperature not stated; protein in an extract; label: biotin

## GCTCTTCACCTTATTTGCATAAGCGAT (double strand) [OCT6 probe (hH2BJ promoter)]
  binding result: binds
